Test results: PMC9676655
No constants are given. Whether binding was seen depends on the method and setting. In cells and extracts the contact can be indirect. Some results given as binding are weak or reduced against the parent protein; the word gives no strength. For some of these results: Tags and fused reporters may be left off the sequences shown.

Sequences of proteins named here, by UniProt entry; tags and fusion partners are left off.
UniProt Q8R560: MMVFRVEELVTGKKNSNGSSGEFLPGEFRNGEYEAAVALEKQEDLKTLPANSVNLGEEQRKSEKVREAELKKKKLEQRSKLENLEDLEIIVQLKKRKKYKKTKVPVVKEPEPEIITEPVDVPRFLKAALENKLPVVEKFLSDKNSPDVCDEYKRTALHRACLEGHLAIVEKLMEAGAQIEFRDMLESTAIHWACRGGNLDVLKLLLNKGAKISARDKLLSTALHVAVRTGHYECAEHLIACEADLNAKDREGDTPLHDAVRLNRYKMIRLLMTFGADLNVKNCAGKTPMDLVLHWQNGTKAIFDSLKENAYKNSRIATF
UniProt Q6MG49: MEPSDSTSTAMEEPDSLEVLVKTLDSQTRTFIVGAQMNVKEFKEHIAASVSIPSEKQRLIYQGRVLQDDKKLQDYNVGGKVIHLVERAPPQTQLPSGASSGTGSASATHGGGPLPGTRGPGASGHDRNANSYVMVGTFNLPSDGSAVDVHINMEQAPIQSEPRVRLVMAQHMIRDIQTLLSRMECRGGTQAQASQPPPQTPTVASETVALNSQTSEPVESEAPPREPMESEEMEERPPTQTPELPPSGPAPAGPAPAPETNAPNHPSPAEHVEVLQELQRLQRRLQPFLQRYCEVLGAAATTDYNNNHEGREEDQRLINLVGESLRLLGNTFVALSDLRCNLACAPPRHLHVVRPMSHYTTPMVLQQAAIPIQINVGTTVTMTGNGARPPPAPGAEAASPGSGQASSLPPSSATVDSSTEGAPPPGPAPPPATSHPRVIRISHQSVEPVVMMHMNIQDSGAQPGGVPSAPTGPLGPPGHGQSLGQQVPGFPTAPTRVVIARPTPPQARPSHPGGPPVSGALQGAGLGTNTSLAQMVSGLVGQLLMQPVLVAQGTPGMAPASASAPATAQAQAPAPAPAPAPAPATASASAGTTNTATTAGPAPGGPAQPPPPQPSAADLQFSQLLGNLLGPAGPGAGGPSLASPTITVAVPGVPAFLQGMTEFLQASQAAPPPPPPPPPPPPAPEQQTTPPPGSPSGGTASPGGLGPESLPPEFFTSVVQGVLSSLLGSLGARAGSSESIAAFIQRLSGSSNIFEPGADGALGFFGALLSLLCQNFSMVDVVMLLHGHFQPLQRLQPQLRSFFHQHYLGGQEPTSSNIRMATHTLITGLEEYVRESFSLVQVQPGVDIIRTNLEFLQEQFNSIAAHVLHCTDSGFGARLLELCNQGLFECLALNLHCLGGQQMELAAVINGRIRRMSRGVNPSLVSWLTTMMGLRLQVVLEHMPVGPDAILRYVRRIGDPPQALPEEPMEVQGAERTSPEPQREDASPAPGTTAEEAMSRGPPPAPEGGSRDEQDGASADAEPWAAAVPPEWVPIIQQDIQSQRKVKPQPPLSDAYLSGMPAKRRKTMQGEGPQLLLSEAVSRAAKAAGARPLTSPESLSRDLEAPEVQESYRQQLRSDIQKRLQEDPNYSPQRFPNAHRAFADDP
UniProt O08629: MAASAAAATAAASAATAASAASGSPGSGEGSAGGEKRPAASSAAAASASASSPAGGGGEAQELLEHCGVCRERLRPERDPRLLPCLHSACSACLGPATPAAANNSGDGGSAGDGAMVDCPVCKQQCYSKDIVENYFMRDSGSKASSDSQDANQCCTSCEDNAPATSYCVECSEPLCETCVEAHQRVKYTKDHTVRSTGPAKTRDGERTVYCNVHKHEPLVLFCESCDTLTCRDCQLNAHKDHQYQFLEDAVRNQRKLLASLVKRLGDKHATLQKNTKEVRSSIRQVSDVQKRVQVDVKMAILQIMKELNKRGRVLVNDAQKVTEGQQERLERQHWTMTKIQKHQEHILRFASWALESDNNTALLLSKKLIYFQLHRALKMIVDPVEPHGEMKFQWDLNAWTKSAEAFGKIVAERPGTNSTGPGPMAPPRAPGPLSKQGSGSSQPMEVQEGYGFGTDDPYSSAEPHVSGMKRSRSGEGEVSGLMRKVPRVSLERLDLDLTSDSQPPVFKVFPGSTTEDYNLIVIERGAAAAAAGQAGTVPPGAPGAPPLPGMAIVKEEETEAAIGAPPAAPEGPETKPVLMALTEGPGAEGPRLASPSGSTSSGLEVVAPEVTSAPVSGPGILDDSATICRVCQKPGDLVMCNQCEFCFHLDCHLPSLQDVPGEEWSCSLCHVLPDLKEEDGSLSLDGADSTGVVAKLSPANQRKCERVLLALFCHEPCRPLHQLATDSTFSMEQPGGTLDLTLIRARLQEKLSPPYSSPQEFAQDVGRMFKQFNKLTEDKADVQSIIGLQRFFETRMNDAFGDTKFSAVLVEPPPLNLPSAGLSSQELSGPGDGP

T1: C-terminal Flag tagged PERM1 (PERM1-Flag) (UniProt Q149B8)
T1 sequence: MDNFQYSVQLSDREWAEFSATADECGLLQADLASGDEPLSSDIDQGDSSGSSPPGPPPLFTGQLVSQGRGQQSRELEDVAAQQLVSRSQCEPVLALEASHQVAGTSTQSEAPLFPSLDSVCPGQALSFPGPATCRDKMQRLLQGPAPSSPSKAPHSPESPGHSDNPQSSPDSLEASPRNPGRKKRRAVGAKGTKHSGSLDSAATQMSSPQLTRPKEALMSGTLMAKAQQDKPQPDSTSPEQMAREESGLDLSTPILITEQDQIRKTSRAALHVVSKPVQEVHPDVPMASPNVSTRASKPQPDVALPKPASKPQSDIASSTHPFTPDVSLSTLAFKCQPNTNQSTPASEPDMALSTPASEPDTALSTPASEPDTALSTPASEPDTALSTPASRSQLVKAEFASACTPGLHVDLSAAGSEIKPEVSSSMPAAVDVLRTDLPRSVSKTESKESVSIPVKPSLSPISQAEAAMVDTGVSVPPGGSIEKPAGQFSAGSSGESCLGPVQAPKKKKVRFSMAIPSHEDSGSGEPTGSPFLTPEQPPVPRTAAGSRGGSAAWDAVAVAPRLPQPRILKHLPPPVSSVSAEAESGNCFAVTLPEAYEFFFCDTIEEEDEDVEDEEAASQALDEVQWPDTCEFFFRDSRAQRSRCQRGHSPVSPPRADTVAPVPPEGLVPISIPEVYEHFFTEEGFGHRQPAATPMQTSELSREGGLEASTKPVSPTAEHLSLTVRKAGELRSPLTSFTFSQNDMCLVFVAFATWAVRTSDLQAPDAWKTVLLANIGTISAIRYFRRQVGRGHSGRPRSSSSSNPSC

T2: PERM1 (PGC-1-, ERR-induced regulator, muscle 1) (mouse (endogenous in mouse heart)) (UniProt Q149B8)
T2 sequence: T1 sequence

B1: Estrogen-Related Receptor Alpha (ERRα) (protein, UniProt O08580 1-422)
chain: MSSQVVGIEPLYIKAEPASPDSPKGSSETETEPPVTLASGPAPARCLPGHKEEEDGEGAGSGEQGSGKLVLSSLPKRLCLVCGDVASGYHYGVASCEACKAFFKRTIQGSIEYSCPASNECEITKRRRKACQACRFTKCLRVGMLKEGVRLDRVRGGRQKYKRRPEVDPLPFPGPFPAGPLAVAGGPRKTAPVNALVSHLLVVEPEKLYAMPDPASPDGHLPAVATLCDLFDREIVVTISWAKSIPGFSSLSLSDQMSVLQSVWMEVLVLGVAQRSLPLQDELAFAEDLVLDEEGARAAGLGDLGAALLQLVRRLQALRLEREEYVLLKALALANSDSVHIEDAEAVEQLREALHEALLEYEAGRAGPGGGAERRRAGRLLLTLPLLRQTAGKVLAHFYGVKLEGKVPMHKLFLEMLEAMMD
B2: ERRα (endogenous in rat cardiomyocytes) (protein, UniProt Q5QJV7 1-422)
chain: B1 chain
B3: PGC-1α (protein, UniProt Q9QYK2 1-796)
chain: MAWDMCSQDSVWSDIECAALVGEDQPLCPDLPELDLSELDVNDLDTDSFLGGLKWCSDQSEIISNQYNNEPANIFEKIDEENEANLLAVLTETLDSLPVDEDGLPSFDALTDGDVTTDNEASPSSMPDGTPPPQEAEEPSLLKKLLLAPANTQLSYNECSGLSTQNHANHTHRIRTNPAIVKTENSWSNKAKSICQQQKPQRRPCSELLKYLTTNDDPPHTKPTENRNSSRDKCASKKKSHTQPQSQHAQAKPTTLSLPLTPESPNDPKGSPFENKTIERTLSVELSGTAGLTPPTTPPHKANQDNPFKASPKLKPSCKTVVPPPTKRARYSECSGTQGSHSTKKGPEQSELYAQLSKSSVLSRGHEERKTKRPSLRLFGDHDYCQSVNSKTDILINISQELQDSRQLDFKDASCDWQGHICSSTDSSQCYLRETLEASKQVSPCSTRKQLQDQEIRAELNKHFGHPSQAVFDDKVDKTSELRDGNFSNEQFSKLPVFINSGLAMDGLFDDSEDENDKLSYPWDGTQSYSLFDVSPSCSSFNSPCRDSVSPPKSLFSQRPQRMRSRSRSFSRHRSCSRSPYSRSRSRSPGSRSSSRSCYYYESSHYRHRTHRNSPLYVRSRSRSPYSRRPRYDSYEANEHERLKRDEYRREYEKRESERAKQRERQKQKAIEERRVIYVGKIRPDTTRTELRDRFEVFGEIEECTVNLRDDGDSYGFITYRYTCDAFAALENGYTLRRSNETDFELYFCGRKQFFKSNYADLDSNSDDFDPASTKSKYDSLDFDSLLKEAQRSLRR
B4: KANK2 (KN motif and ankyrin repeat domains 2) (protein, UniProt D3ZD05 1-847)
chain: MAQVLHVPAPFPGTPGQASSAAFPNKEPDPPYSVETPYGYRLDLDFLKYVDDIEKGHTLRRVPVQRRPRLGSLPRGPGSWWTSTESLCSDASGDSRHSAYSYCGRGFYPQYGALETRSGTNPRVERTLLDARRRLEDQAAAPSSGGLGSLTPSAAGSTSSLAGVGLLPPTPRSSGLSTPVAPSAGHLAHVREQMAGALRKLRQLEEQVKLIPVLQVKLSVLQEEKRQLTVQLKSQKFLGHPSGTRSRSELCLDLPEAPDDPAVLETRSVGTWVRERDLGIPDGEAALVAKVAVLETQLKKALQELRAAQTQQVDLQPQAWPPPDTQVRVDTVRVVEGPREVEVAASTAAGAPAQRAQSLEPYGAGLKALATSAENTLVFRSHEVVETMCPLPTASTSNMHTAKKISITERNCTGAARMADPPPSPAEPSPSSPYPAAEPENPAPAAQDTTDRELTRPVASQDSQAAEGAGGASLGVQSALKRKEVPADPDVHQRNLQFVGINGGYESSSEDSSTAENSEHESTENEAPEPPVRVLSTAEGPQLRPLGPAVGKTSQDERQLSQESQRVPEAKVAPGPDPEEEIRMDLSPDLISACLALEKYLENPNALTERELKVAYTTVLQEWLRLACRSDAHPELVRRHLVTFRAMSARLLDYVVNIADSNGNTALHYSVSHANFPVVRQLLDSGVCQVDKLNRAGYSPIMLTALATLKTQDDIDTILQLFRLGNVNAKASQAGQTALMLAVSHGRVDVVKALLACEVDVNMQDEDGSTALMCACEHGHKEITGLLLAVPSCDISLTDRDGSTALMVALDAGQSEIASMLYSRMNIKCSFAPMSDYESPASSSAEE

Assays:
[1] = target: T1, C-terminal Flag tagged PERM1 (PERM1-Flag); experiment: co-IP; adenovirus PERM1-Flag transduced into cardiomyocytes; pulled down by anti-Flag antibody; immunoblot of endogenous partners
[2] = target: T2, PERM1 (PGC-1-, ERR-induced regulator, muscle 1) (mouse (endogenous in mouse heart)); experiment: co-IP; endogenous proteins from WT mouse heart lysate; immunoprecipitated with anti-PERM1 or anti-ERRα antibody, Protein A/G agarose; immunoblot

binding [1]	binding [2]	Molecule
binds		ankyrin repeat domain 1 (ANKRD1) (from UniProt Q8R560 1-319)
binds		BLC2-associated anthanogene-6 (BAG6) (from UniProt Q6MG49 1-1146)
binds		transcriptional intermediary factor 1β (TIF1β) (from UniProt O08629 1-835)
	binds	B1
binds		B2
binds		B3
binds		B4
